This note sets out measurements from the supplement of paper PMC12819154, “High-throughput peptide-centric local stability assay extends protein–ligand identification to membrane proteins, tissues and bacteria” (Nature Structural & Molecular Biology, 2025).

The chains behind the UniProt entries cited, without tags or fusion partners. Where a name states a change or a piece, a line headed by the entry shows the natural chain unless it says otherwise.
UniProt Q99KK7: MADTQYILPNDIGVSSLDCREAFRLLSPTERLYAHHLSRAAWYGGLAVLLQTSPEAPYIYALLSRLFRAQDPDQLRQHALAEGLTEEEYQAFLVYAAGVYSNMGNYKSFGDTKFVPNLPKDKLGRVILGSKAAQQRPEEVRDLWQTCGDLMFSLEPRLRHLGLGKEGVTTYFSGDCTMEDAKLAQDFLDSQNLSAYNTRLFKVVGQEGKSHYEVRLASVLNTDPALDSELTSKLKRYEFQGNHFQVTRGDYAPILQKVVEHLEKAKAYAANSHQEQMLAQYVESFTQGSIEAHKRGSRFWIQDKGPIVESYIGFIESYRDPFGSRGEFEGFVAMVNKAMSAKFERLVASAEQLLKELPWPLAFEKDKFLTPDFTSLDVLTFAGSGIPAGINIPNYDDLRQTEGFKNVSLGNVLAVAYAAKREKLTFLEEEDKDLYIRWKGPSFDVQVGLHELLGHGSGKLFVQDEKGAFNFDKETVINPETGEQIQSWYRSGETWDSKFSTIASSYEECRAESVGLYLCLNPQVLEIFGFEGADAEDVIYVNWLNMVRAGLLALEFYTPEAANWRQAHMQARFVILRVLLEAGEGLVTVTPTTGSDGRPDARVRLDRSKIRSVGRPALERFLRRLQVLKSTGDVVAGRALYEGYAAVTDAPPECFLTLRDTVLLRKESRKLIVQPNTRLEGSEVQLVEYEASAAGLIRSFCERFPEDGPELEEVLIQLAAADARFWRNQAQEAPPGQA
UniProt Q99LG2: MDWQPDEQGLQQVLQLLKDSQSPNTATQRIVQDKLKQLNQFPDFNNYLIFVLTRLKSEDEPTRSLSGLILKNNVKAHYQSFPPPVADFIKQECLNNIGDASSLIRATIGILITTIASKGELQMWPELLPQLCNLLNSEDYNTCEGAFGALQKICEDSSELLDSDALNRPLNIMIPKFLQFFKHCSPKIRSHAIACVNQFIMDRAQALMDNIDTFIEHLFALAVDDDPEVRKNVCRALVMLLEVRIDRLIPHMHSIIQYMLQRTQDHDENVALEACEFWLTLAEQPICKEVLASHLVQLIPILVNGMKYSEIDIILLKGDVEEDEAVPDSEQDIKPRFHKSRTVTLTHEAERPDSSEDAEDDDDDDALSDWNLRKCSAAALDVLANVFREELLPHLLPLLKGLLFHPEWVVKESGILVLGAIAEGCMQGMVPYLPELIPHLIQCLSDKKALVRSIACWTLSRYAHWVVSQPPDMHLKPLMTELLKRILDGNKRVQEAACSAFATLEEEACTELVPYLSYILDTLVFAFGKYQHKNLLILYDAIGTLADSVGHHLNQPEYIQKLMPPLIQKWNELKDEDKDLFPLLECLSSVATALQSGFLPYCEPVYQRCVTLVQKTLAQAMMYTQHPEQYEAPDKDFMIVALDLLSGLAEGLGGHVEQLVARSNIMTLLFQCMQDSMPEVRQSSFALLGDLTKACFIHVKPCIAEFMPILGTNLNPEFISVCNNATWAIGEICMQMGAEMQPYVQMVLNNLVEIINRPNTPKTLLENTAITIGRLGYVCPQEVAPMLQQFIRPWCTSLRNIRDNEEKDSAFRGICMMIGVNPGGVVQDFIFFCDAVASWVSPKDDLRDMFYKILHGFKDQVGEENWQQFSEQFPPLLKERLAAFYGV
UniProt Q9CQB2: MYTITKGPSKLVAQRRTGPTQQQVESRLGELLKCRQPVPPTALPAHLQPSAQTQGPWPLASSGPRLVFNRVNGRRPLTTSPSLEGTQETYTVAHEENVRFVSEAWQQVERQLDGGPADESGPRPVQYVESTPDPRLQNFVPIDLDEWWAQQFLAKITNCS
UniProt Q99K28: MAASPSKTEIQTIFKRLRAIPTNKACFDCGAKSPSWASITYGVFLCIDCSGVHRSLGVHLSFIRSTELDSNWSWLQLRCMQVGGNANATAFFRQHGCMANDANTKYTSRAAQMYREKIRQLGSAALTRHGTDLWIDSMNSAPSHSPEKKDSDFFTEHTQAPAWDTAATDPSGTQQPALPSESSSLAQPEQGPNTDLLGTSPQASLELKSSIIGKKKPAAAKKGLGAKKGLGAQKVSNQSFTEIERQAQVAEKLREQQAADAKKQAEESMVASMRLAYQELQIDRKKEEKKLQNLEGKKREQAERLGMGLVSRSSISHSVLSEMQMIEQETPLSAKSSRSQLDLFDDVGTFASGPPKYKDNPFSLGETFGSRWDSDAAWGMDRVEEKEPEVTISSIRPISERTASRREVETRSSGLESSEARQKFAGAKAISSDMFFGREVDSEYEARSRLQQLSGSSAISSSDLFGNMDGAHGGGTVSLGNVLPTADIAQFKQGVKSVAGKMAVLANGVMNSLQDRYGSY
UniProt Q99KC8: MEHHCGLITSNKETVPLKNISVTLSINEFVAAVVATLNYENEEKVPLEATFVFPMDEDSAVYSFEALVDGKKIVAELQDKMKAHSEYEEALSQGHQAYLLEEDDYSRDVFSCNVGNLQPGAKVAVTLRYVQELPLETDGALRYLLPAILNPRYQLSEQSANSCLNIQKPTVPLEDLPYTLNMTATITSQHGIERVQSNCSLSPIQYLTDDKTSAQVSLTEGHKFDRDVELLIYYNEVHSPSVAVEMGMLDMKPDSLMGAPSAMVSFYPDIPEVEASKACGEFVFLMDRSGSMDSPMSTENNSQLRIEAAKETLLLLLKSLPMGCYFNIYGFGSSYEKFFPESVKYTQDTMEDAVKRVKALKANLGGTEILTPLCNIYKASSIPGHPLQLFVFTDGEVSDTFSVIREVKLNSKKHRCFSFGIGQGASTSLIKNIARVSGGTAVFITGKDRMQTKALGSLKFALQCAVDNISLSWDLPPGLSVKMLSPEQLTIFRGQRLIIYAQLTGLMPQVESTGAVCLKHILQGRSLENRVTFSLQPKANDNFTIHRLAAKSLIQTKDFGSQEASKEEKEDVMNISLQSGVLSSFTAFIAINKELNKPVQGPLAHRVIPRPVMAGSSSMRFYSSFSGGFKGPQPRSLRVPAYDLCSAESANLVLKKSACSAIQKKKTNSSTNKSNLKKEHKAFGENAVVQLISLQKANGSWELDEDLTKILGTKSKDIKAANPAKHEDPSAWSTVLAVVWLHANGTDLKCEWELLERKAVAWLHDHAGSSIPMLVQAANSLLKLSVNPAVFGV
UniProt Q99K01: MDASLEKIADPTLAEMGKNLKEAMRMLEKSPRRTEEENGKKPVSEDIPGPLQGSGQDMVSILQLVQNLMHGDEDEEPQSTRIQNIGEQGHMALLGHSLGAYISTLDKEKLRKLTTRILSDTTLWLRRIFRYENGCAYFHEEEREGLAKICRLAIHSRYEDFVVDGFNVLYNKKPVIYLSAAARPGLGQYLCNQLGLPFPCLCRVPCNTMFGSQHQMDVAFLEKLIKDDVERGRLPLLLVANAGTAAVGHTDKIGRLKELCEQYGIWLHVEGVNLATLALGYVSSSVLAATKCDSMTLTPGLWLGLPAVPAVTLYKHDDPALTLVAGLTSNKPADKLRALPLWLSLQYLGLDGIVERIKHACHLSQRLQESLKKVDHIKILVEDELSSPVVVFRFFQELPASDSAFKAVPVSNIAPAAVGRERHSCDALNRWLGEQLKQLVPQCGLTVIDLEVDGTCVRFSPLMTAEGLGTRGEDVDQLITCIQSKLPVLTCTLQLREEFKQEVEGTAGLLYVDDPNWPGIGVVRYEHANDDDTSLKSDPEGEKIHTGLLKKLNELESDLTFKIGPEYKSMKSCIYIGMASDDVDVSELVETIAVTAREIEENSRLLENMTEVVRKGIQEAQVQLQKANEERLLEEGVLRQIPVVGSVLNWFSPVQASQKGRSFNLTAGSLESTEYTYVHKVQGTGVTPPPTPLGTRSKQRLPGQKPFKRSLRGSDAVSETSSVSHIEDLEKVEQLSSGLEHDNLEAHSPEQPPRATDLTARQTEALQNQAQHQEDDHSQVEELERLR
UniProt Q99MR3: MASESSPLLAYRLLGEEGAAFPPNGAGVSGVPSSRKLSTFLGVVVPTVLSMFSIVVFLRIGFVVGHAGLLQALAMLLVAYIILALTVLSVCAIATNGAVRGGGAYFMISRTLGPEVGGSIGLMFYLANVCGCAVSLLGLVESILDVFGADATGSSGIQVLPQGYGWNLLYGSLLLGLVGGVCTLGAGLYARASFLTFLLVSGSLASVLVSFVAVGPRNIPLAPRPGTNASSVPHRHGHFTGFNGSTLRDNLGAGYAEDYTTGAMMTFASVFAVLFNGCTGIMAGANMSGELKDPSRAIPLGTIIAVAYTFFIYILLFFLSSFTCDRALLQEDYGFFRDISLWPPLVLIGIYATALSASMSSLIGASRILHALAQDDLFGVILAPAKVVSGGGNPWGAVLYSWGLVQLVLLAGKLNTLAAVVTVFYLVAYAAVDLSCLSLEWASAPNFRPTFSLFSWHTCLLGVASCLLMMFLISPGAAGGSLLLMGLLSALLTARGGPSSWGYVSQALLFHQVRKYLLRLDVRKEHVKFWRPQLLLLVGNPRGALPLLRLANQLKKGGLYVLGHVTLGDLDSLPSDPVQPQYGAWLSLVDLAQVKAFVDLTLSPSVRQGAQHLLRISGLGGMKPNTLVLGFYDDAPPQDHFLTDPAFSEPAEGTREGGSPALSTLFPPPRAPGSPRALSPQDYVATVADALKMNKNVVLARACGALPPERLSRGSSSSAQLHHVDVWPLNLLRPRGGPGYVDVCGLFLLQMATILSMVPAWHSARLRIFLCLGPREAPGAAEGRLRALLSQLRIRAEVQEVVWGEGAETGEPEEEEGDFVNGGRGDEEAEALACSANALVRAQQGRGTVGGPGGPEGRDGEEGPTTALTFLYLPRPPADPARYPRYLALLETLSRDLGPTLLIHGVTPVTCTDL
UniProt Q99JF5: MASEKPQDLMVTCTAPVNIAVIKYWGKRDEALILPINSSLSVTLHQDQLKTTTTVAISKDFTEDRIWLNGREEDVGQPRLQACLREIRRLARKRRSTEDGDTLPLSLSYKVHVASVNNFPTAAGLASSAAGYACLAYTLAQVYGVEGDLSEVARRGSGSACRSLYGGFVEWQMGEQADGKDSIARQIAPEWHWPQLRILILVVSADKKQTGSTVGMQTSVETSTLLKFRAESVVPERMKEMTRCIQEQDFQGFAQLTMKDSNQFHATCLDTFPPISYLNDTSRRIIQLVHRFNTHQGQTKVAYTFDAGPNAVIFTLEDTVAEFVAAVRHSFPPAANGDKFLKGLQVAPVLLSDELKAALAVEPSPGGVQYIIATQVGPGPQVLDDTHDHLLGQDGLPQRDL
UniProt Q99N16: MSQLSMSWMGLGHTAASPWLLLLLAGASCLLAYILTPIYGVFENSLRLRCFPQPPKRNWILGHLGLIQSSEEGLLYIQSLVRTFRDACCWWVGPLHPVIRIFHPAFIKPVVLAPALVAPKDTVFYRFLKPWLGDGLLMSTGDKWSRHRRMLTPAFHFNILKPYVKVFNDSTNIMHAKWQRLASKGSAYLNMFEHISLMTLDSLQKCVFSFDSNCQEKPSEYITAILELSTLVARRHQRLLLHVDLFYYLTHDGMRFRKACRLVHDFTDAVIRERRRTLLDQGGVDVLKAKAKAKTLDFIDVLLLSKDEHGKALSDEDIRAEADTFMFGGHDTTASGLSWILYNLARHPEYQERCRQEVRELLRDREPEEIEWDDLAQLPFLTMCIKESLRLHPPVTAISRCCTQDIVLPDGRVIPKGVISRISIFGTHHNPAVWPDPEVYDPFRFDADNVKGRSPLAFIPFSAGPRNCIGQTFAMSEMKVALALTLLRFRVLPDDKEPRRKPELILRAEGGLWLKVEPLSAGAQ
UniProt Q9CR62: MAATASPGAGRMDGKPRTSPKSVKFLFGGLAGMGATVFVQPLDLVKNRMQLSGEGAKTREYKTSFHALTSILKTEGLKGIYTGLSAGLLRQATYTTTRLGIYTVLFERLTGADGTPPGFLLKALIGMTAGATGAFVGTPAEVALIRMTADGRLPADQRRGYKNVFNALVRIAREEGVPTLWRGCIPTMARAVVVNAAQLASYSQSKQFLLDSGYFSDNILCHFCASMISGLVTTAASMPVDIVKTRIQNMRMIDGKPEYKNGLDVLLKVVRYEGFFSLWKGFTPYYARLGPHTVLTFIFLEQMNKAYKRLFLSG
UniProt Q99KK9: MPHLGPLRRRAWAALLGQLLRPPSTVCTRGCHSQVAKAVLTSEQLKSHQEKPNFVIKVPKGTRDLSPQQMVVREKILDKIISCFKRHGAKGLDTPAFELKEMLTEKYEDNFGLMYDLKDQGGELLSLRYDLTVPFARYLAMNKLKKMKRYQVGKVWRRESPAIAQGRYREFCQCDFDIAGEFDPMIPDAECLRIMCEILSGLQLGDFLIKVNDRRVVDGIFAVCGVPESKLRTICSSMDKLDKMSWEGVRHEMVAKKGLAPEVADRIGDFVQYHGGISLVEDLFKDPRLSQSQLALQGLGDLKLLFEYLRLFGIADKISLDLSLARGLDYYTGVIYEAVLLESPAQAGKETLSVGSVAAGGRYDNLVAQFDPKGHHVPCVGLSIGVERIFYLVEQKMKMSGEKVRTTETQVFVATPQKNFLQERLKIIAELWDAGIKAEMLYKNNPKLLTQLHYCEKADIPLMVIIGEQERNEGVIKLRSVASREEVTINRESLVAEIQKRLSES

The list shows a part of the results. Most entries show no effect beyond the scatter of the controls.

Compound in this assay: CN[C@@H]1C[C@H]2O[C@@](C)([C@@H]1OC)n1c3ccccc3c3c4c(c5c6ccccc6n2c5c31)C(=O)NC4 [staurosporine]
Put plainly: log2 fold change of pooled soluble protein (PISA), ligand vs vehicle (log2 ratio); higher = more thermally stabilized. The conditions noted are these: ligand concentration: 20 uM; assay format: PISA pool 52.9/55.5/58.6 C.
Take UniProt Q9CQV8: the “log2 fold change of pooled soluble protein” value (from here on “log2 fold change”) was 0.0961.

Consider UniProt Q99JI4, for which the “log2 fold change” value came out at 0.266.

In the case of UniProt Q9CWU9, the “log2 fold change” value was found to be 0.00947.

Turning to UniProt Q99LC2, the “log2 fold change” value is -0.216.

For the target UniProt Q9CR29, the “log2 fold change” value is -0.0375.

With UniProt Q99KK7, the “log2 fold change” value was 0.0404.

Take UniProt Q99MR8: the “log2 fold change” value came out at 0.0359.

In the case of UniProt Q99LG2, the “log2 fold change” value was -0.172.

For UniProt Q9CQB2, the “log2 fold change” value is 0.0898.

On to UniProt Q99K28, for which the “log2 fold change” value was -0.0741.

In the case of UniProt Q9CRD0, the “log2 fold change” value worked out at 0.0189.

For UniProt Q9CX25, the “log2 fold change” value was determined as 0.301.

In the case of UniProt Q99LX0, the “log2 fold change” value is -0.0636.

Turning to UniProt Q99KC8, the “log2 fold change” value is 0.0243.

As to UniProt Q99K70, the “log2 fold change” value came to 0.0931.

Take UniProt Q9CQA6: the “log2 fold change” value was 0.189.

For UniProt Q99K01, the “log2 fold change” value was -0.193.

Consider UniProt Q99MR3, for which the “log2 fold change” value is -0.152.

UniProt Q99M87: the “log2 fold change” value was -0.292.

On to UniProt Q9CQS4, for which the “log2 fold change” value is 0.178.

Consider UniProt Q9CU62, for which the “log2 fold change” value is -0.156.

For UniProt Q99JF5, the “log2 fold change” value came to 0.101.

With UniProt Q99N16, the “log2 fold change” value is -0.000226.

On to UniProt Q99P30, for which the “log2 fold change” value turned out to be 0.0921.

As for UniProt Q9CR62, the “log2 fold change” value was 0.0187.

Turning to UniProt Q9CWE0, the “log2 fold change” value came to 0.0842.

For the target UniProt Q9CR09, the “log2 fold change” value was -0.0221.

With UniProt Q9CQ60, the “log2 fold change” value was -0.085.

As to UniProt Q9CQ65, the “log2 fold change” value was -0.00365.

Turning to UniProt Q99P72, the “log2 fold change” value stood at 0.232.

UniProt Q99KN9: the “log2 fold change” value amounted to 0.1.

Take UniProt Q9CQF9: the “log2 fold change” value is -0.167.

UniProt Q9CSN1: the “log2 fold change” value was -0.00347.

With UniProt Q9CQU0, the “log2 fold change” value was -0.00425.

For the target UniProt Q9CW03, the “log2 fold change” value is -0.115.

For the target UniProt Q99JY4, the “log2 fold change” value stood at 0.0564.

In the case of UniProt Q99KK9, the “log2 fold change” value is -0.0281.
